The text below walks through data of PMC5925078.

Sequences of proteins named here, by UniProt entry; tags and fusion partners are left off. Residues count along the entry.
UniProt P19438, residues 30-211: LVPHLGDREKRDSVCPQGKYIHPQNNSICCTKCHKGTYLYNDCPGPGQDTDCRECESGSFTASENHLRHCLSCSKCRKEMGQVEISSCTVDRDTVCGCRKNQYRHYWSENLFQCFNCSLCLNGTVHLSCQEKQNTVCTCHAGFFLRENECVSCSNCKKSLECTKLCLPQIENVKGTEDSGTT
UniProt P20333, residues 23-257: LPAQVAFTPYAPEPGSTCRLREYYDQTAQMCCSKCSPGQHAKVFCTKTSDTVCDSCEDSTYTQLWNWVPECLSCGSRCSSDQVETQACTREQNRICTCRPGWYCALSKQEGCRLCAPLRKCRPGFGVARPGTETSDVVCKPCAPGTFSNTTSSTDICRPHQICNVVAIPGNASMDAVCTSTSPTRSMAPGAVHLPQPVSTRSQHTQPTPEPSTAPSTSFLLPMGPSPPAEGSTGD
UniProt P28799, residues 21-593: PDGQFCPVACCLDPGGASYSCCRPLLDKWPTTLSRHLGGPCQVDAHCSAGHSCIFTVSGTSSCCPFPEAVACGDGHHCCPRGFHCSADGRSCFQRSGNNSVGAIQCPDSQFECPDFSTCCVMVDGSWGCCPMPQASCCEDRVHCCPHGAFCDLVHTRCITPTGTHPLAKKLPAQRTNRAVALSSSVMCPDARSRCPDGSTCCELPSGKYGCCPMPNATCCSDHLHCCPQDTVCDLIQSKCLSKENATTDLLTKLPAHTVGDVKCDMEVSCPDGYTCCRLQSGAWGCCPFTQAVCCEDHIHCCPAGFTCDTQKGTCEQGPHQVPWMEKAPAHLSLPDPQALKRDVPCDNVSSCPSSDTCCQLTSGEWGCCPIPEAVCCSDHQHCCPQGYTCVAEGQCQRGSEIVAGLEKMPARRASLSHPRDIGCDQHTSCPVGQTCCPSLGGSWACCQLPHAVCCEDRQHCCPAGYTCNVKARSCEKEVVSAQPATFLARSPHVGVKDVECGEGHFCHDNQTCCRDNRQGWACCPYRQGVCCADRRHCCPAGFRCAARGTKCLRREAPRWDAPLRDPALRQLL

These are yes or no findings as the source states them, for the method shown.

Assay [1] addresses TNFR1-Fc (UniProt P19438). Put plainly: cell-free binding study with GpL (luciferase) fusion protein on ELISA plates; direct binding; TNFR1-Fc, TNFR2-Fc or hIgG1 immobilized; SNs of GpL-PGRN or PGRN-GpL expressing HEK293 cells added for 1 h; only the target purified.
Assay [2] deals with TNFR2-Fc (Enbrel) (UniProt P20333). The assay is described as above.
For assay [3], the target named is TNFR1-Fc (UniProt P19438). Put plainly: cell-free binding study with GpL (luciferase) fusion protein on ELISA plates; direct binding; TNFR1-Fc, TNFR2-Fc or hIgG1 immobilized; lysates of GpL-PGRN or PGRN-GpL expressing HEK293 cells added for 1 h; only the target purified.
The target in assay [4] is TNFR2-Fc (Enbrel) (UniProt P20333). The description is as above.

For the substance GpL-PGRN (from UniProt P28799 21-593), the binding result in assay [1], in assay [2], in assay [3] and in assay [4] was “no binding (tested: up to 5,000–30,000 ng/ml)” each time.
